In publication PMC5446692:
Read-outs that look alike come from different tables or passages of the source. Results are given in words; binding and its absence hold for the method and conditions named. In cells and extracts the contact can be indirect. Some binding calls cover weakened binding; strength is not graded here.

Sequences of proteins named here, by UniProt entry; tags and fusion partners are left off.
UniProt P10275: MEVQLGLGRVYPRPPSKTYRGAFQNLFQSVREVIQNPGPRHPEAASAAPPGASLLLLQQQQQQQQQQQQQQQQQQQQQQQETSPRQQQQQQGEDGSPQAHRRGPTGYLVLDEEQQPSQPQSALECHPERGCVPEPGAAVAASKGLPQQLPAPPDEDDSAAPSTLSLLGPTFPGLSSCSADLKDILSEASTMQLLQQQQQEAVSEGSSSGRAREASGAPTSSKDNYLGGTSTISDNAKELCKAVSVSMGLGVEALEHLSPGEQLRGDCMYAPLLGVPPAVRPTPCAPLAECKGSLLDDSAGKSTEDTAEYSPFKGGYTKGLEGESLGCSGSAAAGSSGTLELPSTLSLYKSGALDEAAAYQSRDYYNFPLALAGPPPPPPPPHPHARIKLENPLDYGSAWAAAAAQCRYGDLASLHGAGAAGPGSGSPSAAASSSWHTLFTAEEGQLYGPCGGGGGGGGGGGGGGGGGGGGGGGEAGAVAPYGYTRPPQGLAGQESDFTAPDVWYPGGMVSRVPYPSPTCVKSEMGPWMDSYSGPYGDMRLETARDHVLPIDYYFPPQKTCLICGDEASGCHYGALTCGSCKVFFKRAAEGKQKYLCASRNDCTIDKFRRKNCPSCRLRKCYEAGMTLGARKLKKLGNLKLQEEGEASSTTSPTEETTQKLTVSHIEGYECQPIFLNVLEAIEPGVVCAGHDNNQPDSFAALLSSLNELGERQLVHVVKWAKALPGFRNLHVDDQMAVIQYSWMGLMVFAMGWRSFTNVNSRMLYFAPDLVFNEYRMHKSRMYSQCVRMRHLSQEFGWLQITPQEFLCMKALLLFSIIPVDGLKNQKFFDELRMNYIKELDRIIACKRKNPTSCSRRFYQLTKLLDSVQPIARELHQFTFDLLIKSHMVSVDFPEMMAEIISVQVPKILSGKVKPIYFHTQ
UniProt O75376: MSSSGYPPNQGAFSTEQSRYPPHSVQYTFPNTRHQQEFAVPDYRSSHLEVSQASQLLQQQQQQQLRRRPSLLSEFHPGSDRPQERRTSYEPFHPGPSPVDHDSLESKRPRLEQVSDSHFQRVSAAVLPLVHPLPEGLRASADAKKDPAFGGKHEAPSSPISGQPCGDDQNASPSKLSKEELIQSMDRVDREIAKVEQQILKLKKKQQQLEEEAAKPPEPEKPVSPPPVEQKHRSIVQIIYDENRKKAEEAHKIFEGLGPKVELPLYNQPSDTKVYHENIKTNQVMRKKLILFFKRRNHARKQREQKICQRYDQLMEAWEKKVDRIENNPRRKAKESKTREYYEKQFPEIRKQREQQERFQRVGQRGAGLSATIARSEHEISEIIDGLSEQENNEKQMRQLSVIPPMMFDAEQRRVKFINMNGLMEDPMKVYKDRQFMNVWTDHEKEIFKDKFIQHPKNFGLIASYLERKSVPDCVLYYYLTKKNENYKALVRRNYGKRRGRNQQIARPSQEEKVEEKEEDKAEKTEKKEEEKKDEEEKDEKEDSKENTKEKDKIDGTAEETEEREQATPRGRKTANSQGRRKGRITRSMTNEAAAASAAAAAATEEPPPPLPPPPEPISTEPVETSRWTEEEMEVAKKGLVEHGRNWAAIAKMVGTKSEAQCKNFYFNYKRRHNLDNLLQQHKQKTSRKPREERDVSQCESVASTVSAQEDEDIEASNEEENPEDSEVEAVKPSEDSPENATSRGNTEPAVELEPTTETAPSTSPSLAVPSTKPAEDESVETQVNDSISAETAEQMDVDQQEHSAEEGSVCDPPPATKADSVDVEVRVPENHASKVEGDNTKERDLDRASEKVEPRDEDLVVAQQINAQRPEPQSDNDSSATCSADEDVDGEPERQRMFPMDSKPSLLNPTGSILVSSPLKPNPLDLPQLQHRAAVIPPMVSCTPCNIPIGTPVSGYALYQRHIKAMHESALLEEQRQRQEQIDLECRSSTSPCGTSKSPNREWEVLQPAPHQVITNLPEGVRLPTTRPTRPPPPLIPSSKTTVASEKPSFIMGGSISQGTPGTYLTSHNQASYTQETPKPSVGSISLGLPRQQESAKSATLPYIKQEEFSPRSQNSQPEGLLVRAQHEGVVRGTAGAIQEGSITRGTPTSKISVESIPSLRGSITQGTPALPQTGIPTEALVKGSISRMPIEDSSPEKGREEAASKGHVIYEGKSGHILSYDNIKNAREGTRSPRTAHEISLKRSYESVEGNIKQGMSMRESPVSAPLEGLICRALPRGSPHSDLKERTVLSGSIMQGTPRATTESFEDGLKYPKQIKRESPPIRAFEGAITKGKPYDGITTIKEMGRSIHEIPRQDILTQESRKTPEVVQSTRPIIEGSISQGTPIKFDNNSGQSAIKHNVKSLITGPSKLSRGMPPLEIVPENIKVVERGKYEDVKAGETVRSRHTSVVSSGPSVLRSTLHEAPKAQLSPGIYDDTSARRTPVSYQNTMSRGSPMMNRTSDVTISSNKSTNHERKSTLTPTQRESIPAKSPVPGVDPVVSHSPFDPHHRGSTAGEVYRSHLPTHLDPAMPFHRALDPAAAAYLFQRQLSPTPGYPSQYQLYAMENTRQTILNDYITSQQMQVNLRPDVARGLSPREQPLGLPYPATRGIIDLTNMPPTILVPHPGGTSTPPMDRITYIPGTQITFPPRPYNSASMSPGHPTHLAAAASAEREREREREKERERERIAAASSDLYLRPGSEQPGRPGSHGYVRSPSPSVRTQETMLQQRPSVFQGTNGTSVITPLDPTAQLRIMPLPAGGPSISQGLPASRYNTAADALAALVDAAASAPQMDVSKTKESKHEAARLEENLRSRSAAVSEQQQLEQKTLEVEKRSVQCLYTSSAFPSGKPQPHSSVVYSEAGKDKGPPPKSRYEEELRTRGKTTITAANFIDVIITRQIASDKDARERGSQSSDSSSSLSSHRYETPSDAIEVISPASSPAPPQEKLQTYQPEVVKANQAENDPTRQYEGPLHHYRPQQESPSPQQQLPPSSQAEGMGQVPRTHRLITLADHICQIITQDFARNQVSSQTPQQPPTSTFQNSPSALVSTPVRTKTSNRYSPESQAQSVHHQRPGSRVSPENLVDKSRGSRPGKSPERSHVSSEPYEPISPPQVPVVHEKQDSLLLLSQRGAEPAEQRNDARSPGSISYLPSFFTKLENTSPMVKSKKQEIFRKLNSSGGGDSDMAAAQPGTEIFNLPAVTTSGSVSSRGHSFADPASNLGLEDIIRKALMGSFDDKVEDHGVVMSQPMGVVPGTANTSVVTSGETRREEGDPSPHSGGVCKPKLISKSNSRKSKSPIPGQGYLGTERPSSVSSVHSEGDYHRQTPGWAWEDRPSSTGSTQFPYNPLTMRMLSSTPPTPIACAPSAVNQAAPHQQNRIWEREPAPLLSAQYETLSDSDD

What was measured:
[1] = molecular target: Androgen receptor (human (endogenous in LNCaP and C4-2)) (UniProt P10275); test: co-IP; endogenous proteins in lysates of C4-2 and LNCaP cells, untreated or treated with 5 μM JS-K (3, 6 and 9 h, or 9 h); IP lysis buffer 20 mM Tris pH 7.5, 150 mM NaCl, 1% Triton X-100, 1 mM EDTA; primary antibody overnight at 4 °C, Protein A/G Agarose 4 h at 4 °C; Western blot
[2] = molecular target: Androgen receptor (human (endogenous in LNCaP and C4-2)) (UniProt P10275); test: as above; remark: listed apart in the source

binding [1]	binding [2]	Molecule
binds		NCoR1 (from UniProt O75376 1-2440)
	binds	Siah2 (enzyme, UniProt O43255 1-324) MSRPSSTGPSANKPCSKQPPPQPQHTPSPAAPPAAATISAAGPGSSAVPAAAAVISGPGGGGGAGPVSPQHHELTSLFECPVCFDYVLPPILQCQAGHLVCNQCRQKLSCCPTCRGALTPSIRNLAMEKVASAVLFPCKYATTGCSLTLHHTEKPEHEDICEYRPYSCPCPGASCKWQGSLEAVMSHLMHAHKSITTLQGEDIVFLATDINLPGAVDWVMMQSCFGHHFMLVLEKQEKYEGHQQFFAIVLLIGTRKQAENFAYRLELNGNRRRLTWEATPRSIHDGVAAAIMNSDCLVFDTAIAHLFADNGNLGINVTISTCCP
